Assay results taken from paper PMC6039025.
Results are given in words; binding and its absence hold for the method and conditions named. Some results given as binding are weak or reduced against the parent protein; the word gives no strength. Sequences can lack the tags named with a protein.

T1: Smc4-K191M, 3xStrepTagII-tagged (S. cerevisiae) (UniProt Q12267)
T1 sequence: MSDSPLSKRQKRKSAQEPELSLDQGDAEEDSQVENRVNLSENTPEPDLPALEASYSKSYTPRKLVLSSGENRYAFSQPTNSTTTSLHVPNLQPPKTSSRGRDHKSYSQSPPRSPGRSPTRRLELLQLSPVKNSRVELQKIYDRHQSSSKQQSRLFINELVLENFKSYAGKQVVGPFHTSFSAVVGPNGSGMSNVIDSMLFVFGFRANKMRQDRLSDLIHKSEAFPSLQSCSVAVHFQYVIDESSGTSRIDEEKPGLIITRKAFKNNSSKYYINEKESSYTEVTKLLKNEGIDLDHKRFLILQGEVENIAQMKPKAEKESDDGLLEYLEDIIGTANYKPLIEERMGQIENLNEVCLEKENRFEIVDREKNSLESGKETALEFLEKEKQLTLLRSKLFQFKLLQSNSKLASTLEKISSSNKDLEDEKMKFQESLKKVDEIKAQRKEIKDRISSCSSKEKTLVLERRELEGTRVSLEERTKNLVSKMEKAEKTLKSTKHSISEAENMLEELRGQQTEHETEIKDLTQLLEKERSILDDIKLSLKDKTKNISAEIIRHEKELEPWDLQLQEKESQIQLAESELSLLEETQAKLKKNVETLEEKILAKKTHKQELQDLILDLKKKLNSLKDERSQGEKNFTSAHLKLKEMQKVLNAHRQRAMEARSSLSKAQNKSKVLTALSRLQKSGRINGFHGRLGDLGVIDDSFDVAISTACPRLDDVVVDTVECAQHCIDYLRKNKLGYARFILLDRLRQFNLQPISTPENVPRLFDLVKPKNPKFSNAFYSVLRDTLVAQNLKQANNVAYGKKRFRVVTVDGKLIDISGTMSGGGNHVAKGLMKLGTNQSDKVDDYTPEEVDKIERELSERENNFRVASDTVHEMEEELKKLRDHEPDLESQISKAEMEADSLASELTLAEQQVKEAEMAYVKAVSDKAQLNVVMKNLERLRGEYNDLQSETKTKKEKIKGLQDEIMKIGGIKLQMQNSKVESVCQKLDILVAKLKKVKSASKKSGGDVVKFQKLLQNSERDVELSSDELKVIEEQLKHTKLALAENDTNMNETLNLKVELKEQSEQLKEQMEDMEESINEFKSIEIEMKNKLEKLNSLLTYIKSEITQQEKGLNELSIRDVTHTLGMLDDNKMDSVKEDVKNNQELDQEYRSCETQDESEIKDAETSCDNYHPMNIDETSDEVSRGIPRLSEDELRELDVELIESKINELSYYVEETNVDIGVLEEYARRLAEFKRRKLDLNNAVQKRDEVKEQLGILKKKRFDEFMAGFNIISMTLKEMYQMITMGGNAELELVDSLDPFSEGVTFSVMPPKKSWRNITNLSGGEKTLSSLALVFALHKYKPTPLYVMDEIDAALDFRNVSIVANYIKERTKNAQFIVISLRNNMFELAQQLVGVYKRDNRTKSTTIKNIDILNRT

B1: Smc2 (protein, UniProt P38989 1-1170)
chain: MKVEELIIDGFKSYATRTVITDWDPQFNAITGLNGSGKSNILDAICFVLGIASMSTVRASSLQDLIYKRGQAGVTKASVTIVFDNTDKSNSPIGFTNSPQISVTRQVVLGGTSKYLINGHRAPQQSVLQLFQSVQLNINNPNFLIMQGKITKVLNMKPSEILSLIEEAAGTKMFEDRREKAERTMSKKETKLQENRTLLTEEIEPKLEKLRNEKRMFLEFQSTQTDLEKTERIVVSYEYYNIKHKHTSIRETLENGETRMKMLNEFVKKTSEEIDSLNEDVEEIKLQKEKELHKEGTISKLENKENGLLNEISRLKTSLSIKVENLNDTTEKSKALESEIASSSAKLIEKKSAYANTEKDYKMVQEQLSKQRDLYKRKEELVSTLTTGISSTGAADGGYNAQLAKAKTELNEVSLAIKKSSMKMELLKKELLTIEPKLKEATKDNELNVKHVKQCQETCDKLRARLVEYGFDPSRIKDLKQREDKLKSHYYQTCKNSEYLKRRVTNLEFNYTKPYPNFEASFVHGVVGQLFQIDNDNIRYATALQTCAGGRLFNVVVQDSQTATQLLERGRLRKRVTIIPLDKIYTRPISSQVLDLAKKIAPGKVELAINLIRFDESITKAMEFIFGNSLICEDPETAKKITFHPKIRARSITLQGDVYDPEGTLSGGSRNTSESLLVDIQKYNQIQKQIETIQADLNHVTEELQTQYATSQKTKTIQSDLNLSLHKLDLAKRNLDANPSSQIIARNEEILRDIGECENEIKTKQMSLKKCQEEVSTIEKDMKEYDSDKGSKLNELKKELKLLAKELEEQESESERKYDLFQNLELETEQLSSELDSNKTLLHNHLKSIESLKLENSDLEGKIRGVEDDLVTVQTELNEEKKRLMDIDDELNELETLIKKKQDEKKSSELELQKLVHDLNKYKSNTNNMEKIIEDLRQKHEFLEDFDLVRNIVKQNEGIDLDTYRERSKQLNEKFQELRKKVNPNIMNMIENVEKKEAALKTMIKTIEKDKMKIQETISKLNEYKRETLVKTWEKVTLDFGNIFADLLPNSFAKLVPCEGKDVTQGLEVKVKLGNIWKESLIELSGGQRSLIALSLIMALLQFRPAPMYILDEVDAALDLSHTQNIGHLIKTRFKGSQFIVVSLKEGMFANANRVFRTRFQDGTSVVSIM
B2: Brn1-3xHA-12xHIS (protein, UniProt P38170 1-754)
chain: MTTQLRYENNDDDERVEYNLFTNRSTMMANFEEWIKMATDNKINSRNSWNFALIDYFYDLDVLKDGENNINFQKASATLDGCIKIYSSRVDSVTTETGKLLSGLAQRKTNGASNGDDSNGGNGEGLGGDSDEANIEIDPLTGMPISNDPDVNNTRRRVYNRVLETTLVEFETIKMKELDQELIIDPLFKKALVDFDEGGAKSLLLNTLNIDNTARVIFDASIKDTQNVGQGKLQRKEEELIERDSLVDDENEPSQSLISTRNDSTVNDSVISAPSMEDEILSLGMDFIKFDQIAVCEISGSIEQLRNVVEDINQAKDFIENVNNRFDNFLTEEELQAAVPDNAEDDSDGFDMGMQQELCYPDENHDNTSHDEQDDDNVNSTTGSIFEKDLMAYFDENLNRNWRGREHWKVRNFKKANLVNKESDLLEETRTTIGDTTDKNTTDDKSMDTKKKHKQKKVLEIDFFKTDDSFEDKVFASKGRTKIDMPIKNRKNDTHYLLPDDFHFSTDRITRLFIKPGQKMSLFSHRKHTRGDVSSGLFEKSTVSANHSNNDIPTIADEHFWADNYERKEQEEKEKEQSKEVGDVVGGALDNPFEDDMDGVDFNQAFEGTDDNEEASVKLDLQDDEDHKFPIRENKVTYSRVSKKVDVRRLKKNVWRSINNLIQEHDSRKNREQSSNDSETHTEDESTKELKFSDIIQGISKMYSDDTLKDISTSFCFICLLHLANEHGLQITHTENYNDLIVNYEDLATTQAAS
B3: Ycs4 (protein, UniProt Q06156 1-1176)
chain: MSGFSLSEYLTKFQTTDRESYPRLQDPSRELNVIIDQLAVSPEQIDASPDSLEALIDLCHDFPHLTPKLQTQLSYLISSSLSNLSKDIKANLSSNVNFTEIGGLIPQWKRHLEEYGYLIQVLLTFLQDELHKVSSQSTNLNRSAKNSKNDSANVELFKRDCNQMENLLESITKLLEINLSKIFQTTPEKDLFIGLFTRPLFVLLEIEPVTKVSSLKMFIQRILAMCVKNHGQSSSIQSSLMTNLTYFLHLSVFNAELLKLLNDEYNYPQLTEDILKEISTRVFNAKDTTGPKAISNFLIKLSELSPGIMLRQMNLVITLLNNSSITLRCSVVEACGNIVAELAQDPQTMEHYKQQIAVLIELLEERFQDSNPYVRTKAIQGCSKICDLSSKFNKSKAKFTSLAVRSLQDRSSLVRRNSVKLLSKLLLKHPFKAIHGSQLRLSEWEEYLKGSESQLNSTLKKVESQETLNDTIERSLIEEEVEQDEGQCRTELEGSFNKSAELSRIENEVENINATNTSVLMKLKLMIVYYKDAISFIKEIHKSIELISNLLFSKNRNEVLESMDFLVLADAFDIELSEFGIKKMLHLVWMKGTNDEGTSISVHLIECYKQLFLTAPDSCNMQEKAAHIAKNLINLSIGASIADLASLEQLLGMMYEQKLIDQHVINILWAIYNSASKASMQKEQNVNNRDSEKGFSKEQIHGSIIILGMLSLADNEIALKGLESLLNIGLGAVGLKDLTLCRYSCLALERMVPKRSTIITKAINQELEDVAVKKLYAIIINYTKDNEYYPMCEQALSALFTISSKPDILATDLIREKTMMTFGKPEEEDSILSLEQSSRVVSLSQLLFIVGQVAIKTLVYLEKCEAEFKKRKIEAETRNGKVKNQGADVTNTTQDNGGDKELEMIGGTNEDDFTDAIQFVKENELLFGEKSILGKFCPIVEEIVSNSSRFSDPMLQRTATLCLEKLMCLSSKYCEKSLPLLITVMEKSPDPTIRSNAVLGLGDMAVCFNNLVDENTDYLYRRLHDENLMVQRTCLMTVTFLILAGQVKVKGQLGEMAKCLDNPDQGISDMCRLFFTELASKDNAIYNGFIDIFSNLSSDDLLGKESFKKIIKFLLTFIDKERHQKQLNEKLVGRLRKCETQKQWDDIAFVLNNLPYKNEDVTALLEQGFKVVSAKE
B4: Ycg1-3xFLAG-9xHIS (protein, UniProt Q06680 1-1035)
chain: MQDPDGIDINTKIFNSVAEVFQKAQGSYAGHRKHIAVLKKIQSKAVEQGYEDAFNFWFDKLVTKILPLKKNEIIGDRIVKLVAAFIASLERELILAKKQNYKLTNDEEGIFSRFVDQFIRHVLRGVESPDKNVRFRVLQLLAVIMDNIGEIDESLFNLLILSLNKRIYDREPTVRIQAVFCLTKFQDEEQTEHLTELSDNEENFEATRTLVASIQNDPSAEVRRAAMLNLINDNNTRPYILERARDVNIVNRRLVYSRILKSMGRKCFDDIEPHIFDQLIEWGLEDRELSVRNACKRLIAHDWLNALDGDLIELLEKLDVSRSSVCVKAIEALFQSRPDILSKIKFPESIWKDFTVEIAFLFRAIYLYCLDNNITEMLEENFPEASKLSEHLNHYILLRYHHNDISNDSQSHFDYNTLEFIIEQLSIAAERYDYSDEVGRRSMLTVVRNMLALTTLSEPLIKIGIRVMKSLSINEKDFVTMAIEIINDIRDDDIEKQEQEEKIKSKKINRRNETSVDEEDENGTHNDEVNEDEEDDNISSFHSAVENLVQGNGNVSESDIINNLPPEKEASSATIVLCLTRSSYMLELVNTPLTENILIASLMDTLITPAVRNTAPNIRELGVKNLGLCCLLDVKLAIDNMYILGMCVSKGNASLKYIALQVIVDIFSVHGNTVVDGEGKVDSISLHKIFYKVLKNNGLPECQVIAAEGLCKLFLADVFTDDDLFETLVLSYFSPINSSNEALVQAFAFCIPVYCFSHPAHQQRMSRTAADILLRLCVLWDDLQSSVIPEVDREAMLKPNIIFQQLLFWTDPRNLVNQTGSTKKDTVQLTFLIDVLKIYAQIEKKEIKKMIITNINAIFLSSEQDYSTLKELLEYSDDIAENDNLDNVSKNALDKLRNNLNSLIEEINERSETQTKDENNTANDQYSSILGNSFNKSSNDTIEHAADITDGNNTELTKTTVNISAVDNTTEQSNSRKRTRSEAEQIDTSKNLENMSIQDTSTVAKNVSFVLPDEKSDAMSIDEEDKDSESFSEVC

The binders below were run against T1, Smc4-K191M, 3xStrepTagII-tagged (S. cerevisiae) (assay: tandem affinity co-purification (Ni-NTA, Strep-Trap) + SEC; five condensin subunits co-overexpressed in yeast; extract in 500 mM NaCl, 10 mM Tris-HCl pH 8.0, 10% glycerol; Ni-NTA (His tags on Brn1 and Ycg1), then Strep-Trap HP (3xStrepTagII on Smc4), then Superose 6 10/300 in 200 mM NaCl, 50 mM Tris-HCl pH 8.0; subunits seen by SDS-PAGE and Coomassie staining).

binding, binds:
B1
B2
B3
B4
